# From PubChem BioAssay AID540276 (National Center for Advancing Translational Sciences (NCATS), 2011)
# “And” between values parts separate entries of the source, which are not always exact repeats. Identical values can stand only once. Hit rate of the full screen: of about 300,000 compounds, about 5,400 (1.8%) were called active. This list was built around the results that the source calls inconclusive (neither active nor inactive); the mix of calls is not that of the screen. The call rests on the fitted dose curve; tested in HEK293 cells. Potencies beside an inconclusive call are fits to weak or partial responses and may not hold up.
# Assay: qHTS for inhibitors of binding or entry into cells for Marburg Virus
# Settings: Marburg virus pseudotyped entry inhibition, cell reporter; activity change, negative = inhibition: at 37.8 µM (top of the series) unless noted
# On the % scale 0 is the no-effect control and ±100 the full control effect; potency means the concentration at half of the fitted maximal effect.
SMILES,"activity change, negative = inhibition",Potency
CCc1ccc(-c2nnn(CCC#N)n2)cc1,inactive: 11.6% [at 46.1 µM],
C/C(=N\NC(=O)C(N)=O)c1cccc(C(F)(F)F)c1,inactive: 17.1% [at 46.1 µM],
CCCN(CCC)CCNC(=O)CCC(=O)Nc1ccc2nc(N3CCOCC3)cc(C)c2c1,,"inconclusive: 17.8 µM [inhibitor, single point]"
COc1ccc(S(=O)(=O)N2CCOCC2)cc1NC(=O)c1ccc(=O)[nH]c1,,"inconclusive: 0.794 µM [activator, single point]"
CCCCn1c(N)c(NCC)c(=O)[nH]c1=O,,inactive
O=C1CC(c2ccco2)CC2=C1C1c3ccccc3C(=O)N1c1ccccc1N2 (configuration not stated),,"inconclusive: 25.1 µM [inhibitor, partial curve, poor fit]"
O=C(c1cccs1)N1CCN(c2ncc(C(F)(F)F)cc2Cl)CC1,inactive: -18.4%,
COc1ccc(C)cc1NC(=O)NCCCCc1ccccc1,,"inconclusive: 7.08 µM [inhibitor, partial curve, poor fit]"
O=C(NCC1CCCO1)c1c[nH]c2ccc(S(=O)(=O)Nc3ccc(F)cc3F)cc2c1=O (configuration not stated),inactive: -17.4% [at 46.1 µM],
COc1ccc(Cl)cc1NC(=O)CCCC(=O)c1ccccc1,inactive: 24.8% [at 46.1 µM],
COc1ccccc1NS(=O)(=O)c1cc([N+](=O)[O-])ccc1N/N=C/c1c[nH]c2ccccc12,,"inconclusive: 25.9 µM [inhibitor, single point]"
O=C(NC1CCCC1)c1cc(-c2ccccc2)on1,,"inconclusive: 11.2 µM [inhibitor, single point]"
O=C(O)C1=CC(=C(c2ccc(O)c(C(=O)O)c2)c2ccc(O)c(C(=O)O)c2)C=CC1=O,,active: 445 nM and active: 891 nM
COCCn1nnnc1C(c1cccc(OC)c1OC)N1CCN(C(=O)c2ccco2)CC1 (configuration not stated),inactive: -0.135% [at 46.1 µM],
Cn1cccc1C(=O)Nc1ccc(Cl)c(S(=O)(=O)N2CCCCC2)c1,,"inconclusive: 4.47 µM [inhibitor, full curve, poor fit]"
CCc1ccc(NC(=O)c2ccc(F)c(S(=O)(=O)N(CC)c3ccccc3)c2)cc1,,"inconclusive: 5.62 µM [inhibitor, single point]"
O=C(c1cccc(F)c1)N1CCC(c2c[nH]c3ccccc23)(c2c[nH]c3ccccc23)CC1,,"inconclusive: 3.98 µM [inhibitor, partial curve]"
COC(=O)CC(NS(=O)(=O)c1cccs1)c1cccc2ccccc12 (configuration not stated),,"inconclusive: 2.06 µM [inhibitor, partial curve, poor fit]"
COc1cccc(-c2cc(C(=O)N3CCN(c4ccc(F)cc4)CC3)no2)c1,,"inactive and inconclusive: 17.8 µM [activator, single point]"
Cc1cc(C(=O)OCC(=O)Nc2c(F)cccc2F)c(C)n1-c1ccccc1,,"inconclusive: 35.5 µM [inhibitor, partial curve, poor fit]"
CCCC(=O)Nc1cc(=O)[nH]c2ncnn12,,"inconclusive: 23.1 µM [activator, single point]"
COc1ccccc1CN1CC(C(=O)N(C)Cc2ccncc2C)CCC1=O (configuration not stated),inactive: -17.5%,
CCC(C)NC(=O)CN(c1ccc(Cl)c(Cl)c1)S(C)(=O)=O (configuration not stated),inactive: 0.697% [at 46.1 µM],
Cc1ccc2c(c1)C(=O)c1ccccc1CS2=O (configuration not stated),inactive: 0.776%,

SMILES,"activity change, negative = inhibition",Potency
Cc1ccsc1CCN1C(=O)N(c2ccc(F)cc2)C(=O)C1CC(=O)Nc1ccccc1 (configuration not stated),,"inconclusive: 7.08 µM [inhibitor, partial curve, poor fit]"
CCOc1cc(CNCCO)cc(Br)c1OCc1cccs1,,"inconclusive: 10.3 µM [inhibitor, single point]"
O=C(NCc1ccccc1Cl)C1CCCN(c2ncnc3c2nc2n3CCCCC2)C1 (configuration not stated),,"inconclusive: 28.2 µM [inhibitor, partial curve, poor fit]"
COc1cccc(Nc2n[nH]c(=S)s2)c1,,"inconclusive: 6.31 µM [activator, single point]"
CCc1ccc(Oc2coc3cc(OCC(=O)Nc4cc(C)ccc4C)ccc3c2=O)cc1,inactive: -2.28% [at 46.1 µM],
CSc1sccc1/C=N/O,,"inconclusive: 5.62 µM [activator, full curve, poor fit]"
CCc1cc2c(=O)n(CC(C)C)cnc2s1,inactive: -2.61%,
c1ccc(Cn2nnc(-c3ccccc3)n2)cc1,inactive: 2.07%,
COc1cc(C)c2c(c1OC)C(=O)CC2,,"inconclusive: 2.82 µM [inhibitor, single point]"
CCOc1ccc(C(=O)Nc2nnc(NC(=S)Nc3ccccc3)s2)cc1,inactive: -4.03%,
COc1ccc(CNC(=O)C2CCN(S(=O)(=O)c3ccc4nc5c(c(C(=O)O)c4c3)CC(C)CC5)CC2)cc1 (configuration not stated),,"inconclusive: 6.31 µM [inhibitor, single point]"
C=CCn1c(C)cc(C(=O)CN2C(=O)c3ccccc3S2(=O)=O)c1C,,"inconclusive: 0.501 µM [inhibitor, full curve, poor fit]"
Cc1ccc(C(=O)CSc2n[nH]c(-c3ccco3)n2)cc1C,inactive: -13.5%,
Cc1c(NC(=O)C(C)OC(=O)c2ncc(Cl)c(Cl)c2Cl)c(=O)n(-c2ccccc2)n1C (configuration not stated),inactive: -6.06%,
Cc1nc2scc(-c3ccccc3)c2c(=O)n1N=C1C=CC(=O)C=C1,,"inconclusive: 2 µM [inhibitor, full curve, poor fit]"
CN(c1ccccc1)S(=O)(=O)c1ccc(C(=O)Nc2ncccc2O)cc1,,"inconclusive: 1 µM [activator, full curve]"
O=C(c1ccc(-c2ccc([N+](=O)[O-])cc2)o1)N1CCN(S(=O)(=O)c2cccs2)CC1,inactive: -8.94%,
CN(C)c1cc[n+](CC(=O)c2ccc(Br)cc2)cc1,inactive: -21.6% [at 46.1 µM],
O=C(CO/N=C/c1ccccc1Cl)N1CCCc2ccccc21,,"inconclusive: 15.8 µM [activator, single point]"
Cc1cc(C)nc(NC(N)=NC2CCCCC2)n1,inactive: -32.9%,
Cc1cccc(NC(=O)NC(C)C(c2ccccc2)N2CCN(C)CC2)c1 (configuration not stated),inactive: 7.01%,
CCOC(=O)Cc1csc(NC(=O)CSc2ccc(Br)cc2)n1,,"inconclusive: 35.5 µM [inhibitor, partial curve, poor fit]"
O=C(Nc1cccc(Cl)c1)c1ccc(NCCCN2CCOCC2)c([N+](=O)[O-])c1,,active: 10 µM
